From patent US10214710B2, “Intercalated bleach compositions, related methods of manufacture and use” (The Clorox Company, priority 2013, dated 2019)

Test: Relative ratings of solid hypochlorite bleach products
Conditions: for Available Chlorine / Formula Flexibility / Minimal Odor: relative rating; for Total Pts: sum of the six ratings

Row | Compound | Available Chlorine | Formula Flexibility | Minimal Odor | Total Pts
1 | [Ca+2].[O-]Cl.[O-]Cl [Calcium hypochlorite, calcium hypochlorite] | 5 | 3 | 1 | 18
2 | O=C1CN(Cl)C(=O)N1Cl [Dichlorohydantoin] | 5 | 1 | 3 | 16
3 | [Li+].[O-]Cl [Li(OCl)2, lithium hypochlorite] | 3 | 1 | 1 | 14
4 | Trichloromelamine | 5 | 1 | 1 | 16
5 | sodium hypochlorite phosphate adduct [Na(OCl)2 phosphate adduct] | 1 | 3 | 3 | 16
